From the supplement of paper PMC4371806
Whole data set: some 1,600 compounds, median “plate-normalized OD600 growth (mean of duplicates)” near 0.31, cut for the lowest 2% near 0.23. The list shows a part of the results.

System: Escherichia coli BW25113
Assay: plate-normalized OD600 growth (mean of duplicates) (OD600 (normalized)); higher = more growth (less inhibition)
Settings: 10 µM
Procedure: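 E. coli BW25113 in LB (100 µl, 96-well, no shaking) was exposed to 10 µM of each compound (here the ChemBridge subset of a ~30,000-member library) and grown at 37°C for 24 h or 15°C for 48 h, in duplicate. Growth was read as OD600 and the duplicate ODs were normalized across screening plates to correct plate-to-plate variation.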

Row | SMILES | plate-normalized OD600 growth (temperature: 15°C, 48 h) | plate-normalized OD600 growth (temperature: 37°C, 24 h)
1 | O=C1c2ccccc2C(=O)N1CC(=O)N(Cc1ccccc1)c1cccc([N+](=O)[O-])c1 | 0.241 | 0.604
2 | CCOCc1ccc(O)c2ncccc12 | 0.258 | 0.615
3 | O=C(Nc1ccccc1O)c1ccc([N+](=O)[O-])cc1 | 0.236 | 0.621
4 | COc1ccc(OC)c(Nc2nc3nonc3n3nnnc23)c1 | 0.232 | 0.62
5 | COc1ccc(-c2nocc2C#N)cc1 | 0.251 | 0.64
6 | O=C1c2cccc([N+](=O)[O-])c2C(=O)N1n1cnnc1 | 0.258 | 0.629
7 | O=C(NCc1ccccc1)NC(=O)c1cccnc1 | 0.256 | 0.605
8 | Cc1ccc([N+](=O)[O-])cc1NS(=O)(=O)c1cc(Cl)ccc1Cl | 0.236 | 0.586
9 | COc1ccc(OC)c(NC(=O)c2c(OC)cccc2OC)c1 | 0.255 | 0.618
10 | O=C(O)CCC(=O)Nc1ccc(I)cc1 | 0.241 | 0.586
11 | COc1cc(C)c(CN2CCN(c3ccc([N+](=O)[O-])cc3)CC2)cc1C | 0.239 | 0.607
12 | N#Cc1c(NC(=O)c2cc3ncc(Br)cn3n2)sc2c1CCCC2 | 0.263 | 0.623
13 | NC(=O)c1cccc(NC(=O)Nc2ccc(Cl)cc2)c1 | 0.249 | 0.602
14 | O=C(COc1ccc(Br)cc1)NC1CCCC1 | 0.25 | 0.6
15 | CC(=O)n1c2ccccc2c2c1c1ccccc1n2C | 0.25 | 0.591
16 | CC(C)CCNC(=O)C1CC(=O)N(c2ccc(F)cc2)C1 (configuration not stated) | 0.239 | 0.606
17 | OC1CCN(Cc2cc(Br)cs2)CC1 | 0.26 | 0.659
18 | Cc1cc(Cl)ccc1OCCCC(=O)NN1CCOCC1 | 0.284 | 0.634
19 | c1ccc(N2CCN(CC3CCCCC3)CC2)cc1 | 0.255 | 0.654
20 | COc1cc(OC)c(C2C(C#N)=C(N)Oc3cc(N)ccc32)cc1Br (configuration not stated) | 0.23 | 0.62
21 | Cc1sc(-c2c(C#N)c(N)nc3c2CCCCC3)cc1[N+](=O)[O-] | 0.271 | 0.631
22 | OCCN1C2=NCCCN2c2ccccc21 | 0.244 | 0.616
23 | Cc1cccc(NC(=O)COc2ccc(C)c(C)c2)c1 | 0.237 | 0.601
24 | O=C(Nc1ccccc1)N1CCN(c2ccc([N+](=O)[O-])cc2)CC1 | 0.256 | 0.63

Arranged by number of heavy atoms (ascending): part of the list above.
Row | SMILES | plate-normalized OD600 growth (temperature: 15°C, 48 h) | plate-normalized OD600 growth (temperature: 37°C, 24 h)
5 | COc1ccc(-c2nocc2C#N)cc1 | 0.251 | 0.64
7 | O=C(NCc1ccccc1)NC(=O)c1cccnc1 | 0.256 | 0.605
13 | NC(=O)c1cccc(NC(=O)Nc2ccc(Cl)cc2)c1 | 0.249 | 0.602

Continued.

Row | SMILES | plate-normalized OD600 growth (temperature: 15°C, 48 h) | plate-normalized OD600 growth (temperature: 37°C, 24 h)
25 | O=C(c1cccc(Br)c1)n1cnc2ccccc21 | 0.244 | 0.631
26 | COc1ccc(-c2cc(=O)n(CCC#N)[nH]2)cc1 | 0.266 | 0.622
27 | O=C(COc1ccc([N+](=O)[O-])cc1)NCCc1ccccc1 | 0.244 | 0.624
28 | CCN(CC)CCN(C)Cc1cccc([N+](=O)[O-])c1 | 0.245 | 0.601
29 | Oc1ccc(C2CC3CCC2C3)cc1O (configuration not stated) | 0.263 | 0.65
30 | COc1cc2c(cc1OC)C(c1ccccc1)=NCC2 | 0.241 | 0.611
31 | CCOC(=O)N1CCN(Cc2cc(C)ccc2C)CC1 | 0.266 | 0.646
32 | CC(C)(C)c1ccc(Cn2c(N)nc3ccccc32)cc1 | 0.26 | 0.583
33 | CCOc1ccc2cc(C=O)c(=O)[nH]c2c1 | 0.246 | 0.613
34 | N#Cc1c(N)nc(SCC(=O)c2ccc(Br)cc2)c(C#N)c1-c1ccc(O)cc1 | 0.267 | 0.653
35 | c1cncc(-c2nc3c4c5c(sc4ncn3n2)CCCC5)c1 | 0.261 | 0.628
36 | CCCN1CCC(NC23CC4CC(CC(C4)C2)C3)CC1 | 0.25 | 0.633
37 | CC(=O)C1=C(C)OC(N)=C(C#N)C1c1cc2c(cc1[N+](=O)[O-])OCO2 (configuration not stated) | 0.245 | 0.617
38 | O=C(C(Cc1ccc([N+](=O)[O-])cc1)N1C(=O)c2ccccc2C1=O)N1CCCCC1 (configuration not stated) | 0.242 | 0.598
39 | O=S(=O)(Cc1ccccc1)NCC1CCCO1 (configuration not stated) | 0.251 | 0.623
40 | c1ccc2[nH]c(SCCN3CCCCC3)nc2c1 | 0.244 | 0.616
41 | CN1CCC(NCc2ccccc2F)CC1 | 0.212 | 0.645
42 | CC(=O)Nc1ccc2c(c1)ncn2-c1ccccc1 | 0.265 | 0.624
43 | Cc1ccc(NCc2ccc([N+](=O)[O-])cc2)cc1C | 0.237 | 0.605
44 | COc1cc([N+](=O)[O-])ccc1N1CCCC1 | 0.245 | 0.613
45 | COc1ccc(CN2CCC(N3CCCCC3)CC2)cc1 | 0.252 | 0.632
46 | N#CCC(N)=Nc1sc2c(c1C#N)CCCC2 | 0.247 | 0.619
47 | CCN(CC)Cc1cc(NC(C)=O)ccc1O | 0.262 | 0.623
48 | N#CC(c1ccccc1)C(C#N)c1ccccc1 (configuration not stated) | 0.241 | 0.606

Row | SMILES | plate-normalized OD600 growth (temperature: 15°C, 48 h) | plate-normalized OD600 growth (temperature: 37°C, 24 h)
49 | CC1(C)Cc2ccccc2-c2nnc(-c3ccccc3)n21 | 0.261 | 0.634
50 | Cc1nc2ccccc2n1C(=O)c1ccccc1[N+](=O)[O-] | 0.227 | 0.631
51 | c1ccc(N2CCN(C3C4CC5CC(C4)CC3C5)CC2)cc1 (configuration not stated) | 0.244 | 0.6
52 | CNc1ccc(OC(F)F)cc1C(=O)c1ccccc1 | 0.248 | 0.609
53 | CNC(=O)N1C(=O)C(=O)c2ccccc21 | 0.253 | 0.63
54 | O=C(NCC(O)c1ccccc1)c1ccc(Cl)cc1 (configuration not stated) | 0.264 | 0.632
55 | CC(CCc1ccccc1)N1CCN(c2ccccc2F)CC1 (configuration not stated) | 0.25 | 0.606
56 | CCC(NS(=O)(=O)c1ccc(Br)cc1)C(=O)O (configuration not stated) | 0.255 | 0.615
57 | CCOC(=O)N1CCN(CC2CC=CCC2)CC1 (configuration not stated) | 0.257 | 0.625
58 | CC(=O)Nc1c(Cl)c(Cl)c(NC(C)=O)c2n[nH]nc12 | 0.261 | 0.628
59 | COc1cc(CN(CCN(C)C)Cc2ccccc2)cc(OC)c1 | 0.255 | 0.619
60 | CS(=O)(=O)c1nc2ccccc2[nH]1 | 0.26 | 0.635
61 | CN(C)CCN(Cc1ccccc1)Cc1ccc(Br)cc1 | 0.231 | 0.609
62 | Brc1ccc(CN2CCc3ccccc3C2)o1 | 0.242 | 0.639
63 | CSC1=C(C#N)C(c2ccc(O)cc2)CC(=O)N1 (configuration not stated) | 0.247 | 0.622
64 | C=C(C)[C@@H]1CC=C(CN2CCN(c3ccccn3)CC2)CC1 | 0.254 | 0.621
65 | CCOc1cccc(CN2CCCCCC2)c1O | 0.241 | 0.627
66 | COc1ccc(-c2nnc(-c3ccc(OC)cc3)o2)cc1 | 0.254 | 0.622
67 | N#Cc1c(N)c(C(=O)c2ccccc2)n2c1CCC2 | 0.266 | 0.631
68 | CCC1CCC(NCCCN2CCOCC2)CC1 (configuration not stated) | 0.268 | 0.644
69 | COc1ccc(C(=O)Nc2ccccc2)cc1NC(=O)c1cccs1 | 0.241 | 0.645
70 | CCOc1ccc(C2(C)CC(=O)NC2=O)cc1 (configuration not stated) | 0.277 | 0.647
71 | O=S(=O)(Nc1cccnc1)c1cc(Cl)ccc1Cl | 0.267 | 0.619
